Results published in patent US20040209897A1 (Pharmacia Corporation, priority 2002, published 2004).
Structures can show the parent of a compound that is named as a salt.

The chains behind the UniProt entries cited, without tags or fusion partners.
UniProt P49137, whole entry, species assumed: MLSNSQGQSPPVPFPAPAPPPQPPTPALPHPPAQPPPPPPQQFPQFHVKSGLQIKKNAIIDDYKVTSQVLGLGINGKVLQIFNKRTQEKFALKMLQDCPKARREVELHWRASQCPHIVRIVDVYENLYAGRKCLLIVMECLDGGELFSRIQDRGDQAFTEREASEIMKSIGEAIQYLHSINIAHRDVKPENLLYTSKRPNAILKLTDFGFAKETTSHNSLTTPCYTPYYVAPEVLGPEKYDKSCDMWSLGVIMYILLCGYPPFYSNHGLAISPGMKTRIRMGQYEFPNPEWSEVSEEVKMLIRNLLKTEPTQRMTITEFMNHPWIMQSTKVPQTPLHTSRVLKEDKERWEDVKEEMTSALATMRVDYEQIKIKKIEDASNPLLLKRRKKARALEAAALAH

Target: Recombinant MAPKAPK2 (MK-2) (Homo sapiens, UniProt P49137)
Test: Determination of MK-2 IC50 (HSP-peptide phosphorylation, anion exchange resin capture assay)
Assay type: biochemical
Details: MAPKAP2 Avg. IC50

IC50: 8 nM
SMILES: O=C(NC1CCCC1)c1ccc(-c2cc(-c3cc4c([nH]3)CCNC4=O)ccn2)cc1 [Example 7, 2-(2,3′-bipyridin-4-yl)-1,5,6,7-tetrahydro-4H-pyrrolo[3,2-c]pyridin-4-one trifluoroacetate]
